PubChem BioAssay AID1159578 – Peter MacCallum Cancer Centre, 2015
The deposit covers about 18,000 reagents; shown is an unselected part. Over the whole deposit, about 1,030 (5.7%) were called active. 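Inactive calls also include pools with fewer than 3300 nuclei, whose migration was not assessed.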 Raw values vary from plate to plate and are shown uncorrected. Unmarked entries are inactive. No sequences are given here.

Test: 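Knock-downs that alter how fast lymphatic endothelial cells migrate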 (primary screen)
Cell system: human lymphatic endothelial cells
Knock-down reagent: siRNA pool against human genes, 40 nM
Time to read-out: 48 h after transfection
Read-out: 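High-content imaging of dye-stained cells in a scratch assay measures filled wound area and nuclei per well; duplicate means given as ratio to mock and robust z-score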
Direction: migration robust z-score: higher = faster migration into the scratch; migration relative to mock: higher = more scratch area covered than mock; nuclei per well: higher = more cells in the well
Hit rule: 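Pools averaging fewer than 3300 nuclei are never called; remaining pools count as changed when migration robust z lies outside -2 to 2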
Calls: active = migration changed; inactive = no migration change, or too few cells

gene symbol,migration robust z-score,migration class with cell-count check,migration relative to mock,"nuclei per well, duplicate mean"
KIR3DL3,0.73,migration z between -2 and 2; enough cells,0.94,7002
PITRM1,0.39,migration z between -2 and 2; enough cells,0.88,5628
TOX2,2.11 (active),migration z above 2; enough cells,1.43,6254
MRPS16,0.26,migration z between -2 and 2; enough cells,0.95,5514
IFT140,0.22,migration z between -2 and 2; enough cells,0.94,6450
PROCA1,-0.26,migration z between -2 and 2; enough cells,0.82,5937
FEZ1,-0.52,migration z between -2 and 2; enough cells,0.75,5838
NSG1,-1.75,migration z between -2 and 2; enough cells,0.44,4526
EFHC2,-2.66 (active),migration z below -2; enough cells,0.2,5431
PRKCQ,-1.84,migration z between -2 and 2; enough cells,0.45,4430
B3GNT6,0.57,migration z between -2 and 2; enough cells,0.92,6058
DERA,-0.7,migration z between -2 and 2; enough cells,0.67,4571
GPRASP1,0.18,migration z between -2 and 2; enough cells,0.84,5376
UIMC1,-1.57,migration z between -2 and 2; enough cells,0.47,4486
ANAPC1,0.26,migration z between -2 and 2; enough cells,0.96,7401
NCAM1,0.54,migration z between -2 and 2; enough cells,1.02,6360
TRAM2,-0.34,migration z between -2 and 2; enough cells,0.8,5056
TAL1,0.2,migration z between -2 and 2; enough cells,0.94,6754
CALHM4,-0.24,migration z between -2 and 2; enough cells,0.82,4108
MYH7,-0.65,migration z between -2 and 2; enough cells,0.68,6718
TMEM209,-0.24,migration z between -2 and 2; enough cells,0.82,6280
ANO4,1.01,migration z between -2 and 2; enough cells,1.14,6824
ANGPTL2,0.06,migration z between -2 and 2; enough cells,0.9,6382
TP53INP2,-0.33,migration z between -2 and 2; enough cells,0.8,6359
ADM,0.22,migration z between -2 and 2; enough cells,0.94,6314

Sorted by “migration robust z-score” (descending): some entries from above
gene symbol,migration robust z-score,migration class with cell-count check,migration relative to mock,"nuclei per well, duplicate mean"
B3GNT6,0.57,migration z between -2 and 2; enough cells,0.92,6058
NCAM1,0.54,migration z between -2 and 2; enough cells,1.02,6360
ANAPC1,0.26,migration z between -2 and 2; enough cells,0.96,7401
GPRASP1,0.18,migration z between -2 and 2; enough cells,0.84,5376
PROCA1,-0.26,migration z between -2 and 2; enough cells,0.82,5937
TRAM2,-0.34,migration z between -2 and 2; enough cells,0.8,5056
FEZ1,-0.52,migration z between -2 and 2; enough cells,0.75,5838
DERA,-0.7,migration z between -2 and 2; enough cells,0.67,4571
UIMC1,-1.57,migration z between -2 and 2; enough cells,0.47,4486
NSG1,-1.75,migration z between -2 and 2; enough cells,0.44,4526
PRKCQ,-1.84,migration z between -2 and 2; enough cells,0.45,4430
EFHC2,-2.66 (active),migration z below -2; enough cells,0.2,5431

Next reagents:
gene symbol,migration robust z-score,migration class with cell-count check,migration relative to mock,"nuclei per well, duplicate mean"
OR5A1,-0.27,migration z between -2 and 2; enough cells,0.81,6363
HARS1,-0.37,migration z between -2 and 2; enough cells,0.78,6060
LGMN,0.36,migration z between -2 and 2; enough cells,0.87,4865
WFDC10A,-1.47,migration z between -2 and 2; enough cells,0.5,5386
MSH2,1.03,migration z between -2 and 2; enough cells,1,5005
EPRS1,0.36,migration z between -2 and 2; enough cells,0.88,5308
CDNF,-0.17,migration z between -2 and 2; enough cells,0.84,8104
LEPROT,-3.41,under 3300 nuclei; migration not judged,0.02,2726
IER5L,0.54,migration z between -2 and 2; enough cells,1.02,5706
LRP1,-1.12,migration z between -2 and 2; enough cells,0.59,4215
DUOXA2,-2.1 (active),migration z below -2; enough cells,0.34,5986
CYB5R2,-1.68,migration z between -2 and 2; enough cells,0.48,6122
ANKRD13D,-0.33,migration z between -2 and 2; enough cells,0.8,6706
CEBPA,-0.57,migration z between -2 and 2; enough cells,0.7,5658
RBM24,-2.59 (active),migration z below -2; enough cells,0.21,5170
BCLAF1,-0.42,migration z between -2 and 2; enough cells,0.73,4876
MAP7D1,-0.26,migration z between -2 and 2; enough cells,0.82,5491
HIRA,0.08,migration z between -2 and 2; enough cells,0.82,6136
FLNC,1.35,migration z between -2 and 2; enough cells,1.06,3644
UBXN10,-0.54,migration z between -2 and 2; enough cells,0.74,5799
RAVER2,1.88,migration z between -2 and 2; enough cells,1.38,5844
TTC21B,1.2,migration z between -2 and 2; enough cells,1.2,6357
NUP210L,0.65,migration z between -2 and 2; enough cells,1.06,5823
AMBRA1,-0.74,migration z between -2 and 2; enough cells,0.7,5336
TREH,-0.18,migration z between -2 and 2; enough cells,0.77,6529
UBA1,-0.1,migration z between -2 and 2; enough cells,0.78,5002
TREML2,0.68,migration z between -2 and 2; enough cells,1.06,5917
MRPL34,1.43,migration z between -2 and 2; enough cells,1.26,5881
MRPL50,0.34,migration z between -2 and 2; enough cells,0.97,5174
SAYSD1,-0.68,migration z between -2 and 2; enough cells,0.71,3764
LUZP1,-0.96,migration z between -2 and 2; enough cells,0.64,5502
FAM24B,-0.54,migration z between -2 and 2; enough cells,0.75,5877
ID3,0.44,migration z between -2 and 2; enough cells,0.89,3724
MIP,0.68,migration z between -2 and 2; enough cells,0.94,6270
PHACTR4,-0.94,migration z between -2 and 2; enough cells,0.64,5512
DNAJC10,-1.09,migration z between -2 and 2; enough cells,0.6,4674
GLCCI1,-0.93,migration z between -2 and 2; enough cells,0.64,4310
STK38L,-0.46,migration z between -2 and 2; enough cells,0.72,3964
ARSI,0.1,migration z between -2 and 2; enough cells,0.82,5210
BBS12,0.7,migration z between -2 and 2; enough cells,1.07,5298
FUT7,1.22,migration z between -2 and 2; enough cells,1.04,6176
GSTZ1,-0.7,migration z between -2 and 2; enough cells,0.67,4921
GRK4,-1.4,migration z between -2 and 2; enough cells,0.53,5466
SORCS1,1.27,migration z between -2 and 2; enough cells,1.05,7158
ARFGAP3,-0.05,migration z between -2 and 2; enough cells,0.8,5765
CARD17P,-0.47,migration z between -2 and 2; enough cells,0.76,7448
TBXT,-0.38,migration z between -2 and 2; enough cells,0.78,6028
PCK2,0.8,migration z between -2 and 2; enough cells,0.96,4642
